# In US20190285634A1, “ANALYSIS OF RESPONSE TO THERAPEUTICS IN CANCER” (The Board of Trustees of the Leland Stanford Junior …, priority 2018, published 2019):
# At least one compound was matched to its structure with a doubt left.
# How the values were obtained:
# [1] = system: ERK1 and ERK2 phospho-isoforms; test: NIA charge assay of relative abundance of ERK1 and ERK2 phospho-isoforms in 786-0 cells; format: cell-based, human; details: 1 μM for 1 day, stimulated with VEGF or HGF (10 ng/mL) for 10 min
# [2] = system: Erk1; test: Nano Immuno size assay of Erk1 in Burkitt P493-6 cell line after MYC inactivation; format: cell-based, human; details: 24 h MYC inactivation by tetracycline vs high MYC
# [3] = system: pErk1, ppErk2, Erk2; test: NIA charge assay of Erk isoforms in T-ALL 4188 cell line after MYC inactivation; format: cell-based, mouse; details: 24 h MYC inactivation by tetracycline vs high MYC
# [4] = system: PCNA; test: NIA size assay of PCNA (proliferation marker) in tissue slice cultures from human kidney cancer PDX; format: cell-based; details: treated ex vivo for 2 days, normalized to tubulin
# [5] = system: cleaved PARP-1; test: NIA size assay of cleaved PARP-1 (apoptosis marker) in tissue slice cultures from human kidney cancer PDX; format: cell-based; details: treated ex vivo for 2 days, normalized to tubulin
compound,measurement,setting,value
COc1cc2nccc(Oc3ccc(NC(=O)C4(C(=O)Nc5ccc(F)cc5)CC4)cc3)c2cc1OC [cabozantinib],"distribution pattern of specific ERK isoforms, treated vs untreated",[1],distinct distribution pattern
CN(C)[C@@H]1C(O)=C(C(N)=O)C(=O)[C@@]2(O)C(O)=C3C(=O)c4c(O)cccc4[C@@](C)(O)[C@H]3C[C@@H]12 [tetracycline],Erk1 level,[2],decreases
same,"pErk1, ppErk2, and Erk2 levels",[3],increases
CC(=O)Nc1cccc(-n2c(=O)n(C3CC3)c(=O)c3c(Nc4ccc(I)cc4F)n(C)c(=O)c(C)c32)c1 [trametinib],cell cycle proliferation (PCNA),[4],decreased
same,apoptosis (cleaved PARP-1),[5],did not change
